Data reported in PMC4734655.

Biological target: recombinant human IL-8 (interleukin-8) (human)
Assay: affinity purification with mass spectrometry; only the target purified

B1: Mycobacterium tuberculosis AtsG (Rv0296c; arylsulfatase), endogenous (enzyme, UniProt Q6MX51 1-465)
chain: MTSERATGQRENLLIVHWHDLGRYLGVYHHPDVYSPRLDRLAAEGILFTRAHATAPLCTPSRGSLFTGRYPQSNGLVGLAHHGWEYRTGVQTLPQLLSESGWYSALFGMQHETSYPKRLGFDEFDVSNSYCEYVVAKAQDWLHNRVPALDGQRFLLTAGFFETHRPYPHERYRPADSAAVELPDYLPDTPEVRQDVAEFYGSIATADEAVGRLLDTLADTGLDASTWVVFVTDHGPAFPRAKSTLYDAGTGIALIIRPPTRRAMAPRVYDELFSGVDLVPTLLDLLRLEVPADVEGVSHAPALLAPDTENAAVRDHVYTAKTYHDSFDPIRAIRTKEYSYIENYAPRPLLDLPWDIQESPAGMAVAPLVKAPRPQRELYDLRADPTETNNLLAGDDSTQGVAAIAADLAVRLHDWRQRTADVIPSDFAGSRIAERYTETYLRIHRKTPTGRSAIAADRGIDEHCS
With B1 as the binder, how does the binding read?
Its binding is “binds”.

B2: Mycobacterium tuberculosis SerA (Rv2996c; D-3-phosphoglycerate dehydrogenase SerA1), endogenous (enzyme, UniProt P9WNX3 1-528)
chain: MSLPVVLIADKLAPSTVAALGDQVEVRWVDGPDRDKLLAAVPEADALLVRSATTVDAEVLAAAPKLKIVARAGVGLDNVDVDAATARGVLVVNAPTSNIHSAAEHALALLLAASRQIPAADASLREHTWKRSSFSGTEIFGKTVGVVGLGRIGQLVAQRIAAFGAYVVAYDPYVSPARAAQLGIELLSLDDLLARADFISVHLPKTPETAGLIDKEALAKTKPGVIIVNAARGGLVDEAALADAITGGHVRAAGLDVFATEPCTDSPLFELAQVVVTPHLGASTAEAQDRAGTDVAESVRLALAGEFVPDAVNVGGGVVNEEVAPWLDLVRKLGVLAGVLSDELPVSLSVQVRGELAAEEVEVLRLSALRGLFSAVIEDAVTFVNAPALAAERGVTAEICKASESPNHRSVVDVRAVGADGSVVTVSGTLYGPQLSQKIVQINGRHFDLRAQGINLIIHYVDRPGALGKIGTLLGTAGVNIQAAQLSEDAEGPGATILLRLDQDVPDDVRTAIAAAVDAYKLEVVDLS
With B2 as the binder, how does the binding read?
The binding was “binds”.

These are yes or no findings as the source states them, for the method shown. Binding seen in cells or lysates may run through a third protein. These calls come from enrichment with a bait or labelling near it, and not all partners need be listed. Tags and fused reporters may be left off the sequences shown.
